This experiment deals with RanBP9-3xHA (Ran Binding Protein 9 fused to three copies of the HA tag) (mouse) (UniProt P69566). Put plainly: affinity purification with mass spectrometry; anti-HA magnetic beads on 1 mg pre-cleared whole lung lysate of LysMBP9X mice, overnight at 4 °C, on-bead trypsin digestion, LC-MS/MS; hits significant (p ≤ 0.05) against HA-IP from WT mice and Ig-IPs.

Chains of the proteins cited; added tags and fusions are not shown.
UniProt P69566: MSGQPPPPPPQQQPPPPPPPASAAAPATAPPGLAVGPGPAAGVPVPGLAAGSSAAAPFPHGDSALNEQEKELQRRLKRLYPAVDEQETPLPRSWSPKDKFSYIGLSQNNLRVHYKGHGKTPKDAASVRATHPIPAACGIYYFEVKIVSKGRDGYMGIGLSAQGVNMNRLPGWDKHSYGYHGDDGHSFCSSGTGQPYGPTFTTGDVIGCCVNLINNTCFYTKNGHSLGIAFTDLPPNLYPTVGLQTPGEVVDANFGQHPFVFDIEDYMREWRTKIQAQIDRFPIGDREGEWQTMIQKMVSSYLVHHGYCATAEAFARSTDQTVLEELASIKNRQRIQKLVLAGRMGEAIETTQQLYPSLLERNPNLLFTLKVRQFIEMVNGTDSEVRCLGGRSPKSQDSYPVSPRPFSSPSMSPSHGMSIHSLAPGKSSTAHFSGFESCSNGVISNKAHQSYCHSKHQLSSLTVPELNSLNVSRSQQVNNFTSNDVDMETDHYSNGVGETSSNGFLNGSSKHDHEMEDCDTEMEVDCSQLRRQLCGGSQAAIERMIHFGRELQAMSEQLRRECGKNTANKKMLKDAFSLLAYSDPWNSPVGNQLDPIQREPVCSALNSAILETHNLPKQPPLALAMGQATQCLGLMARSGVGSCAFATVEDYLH

These are yes or no findings as the source states them, for the method shown. In cells and extracts the contact can be indirect. A yes stands for co-enrichment or nearness to the bait. Other partners may have been found. Sequences can lack the tags named with a protein.

These results are taken from paper PMC11994786.

B1: Med30 (Mediator 30) (protein, UniProt Q9CQI9 1-178)
chain: MSTPPLAPTGMASGPFGGPQAQQAAREVNTATLCRIGQETVQDIVYRTMEIFQLLRNMQLPNGVTYHTGTYQDRLTKLQDHLRQLSILFRKLRLVYDKCNENCGGMDPIPVEQLIPYVDEDGSKNDDRAGPPRFASEERREIVEVNKKLKQKNQQLKQIMDQLRNLIWDINAMLAMRN
As for B1, the binding result was “binds”.

B2: Slc25a25 (protein, UniProt A2ASZ8 1-469)
chain: MLCLCLYVPIAGAAQTEFQYFESKGLPAELKSIFKLSVFIPSQEFSTYRQWKQKIVQAGDKDLDGQLDFEEFVHYLQDHEKKLRLVFKSLDKKNDGRIDAQEIMQSLRDLGVKISEQQAEKILKSMDKNGTMTIDWNEWRDYHLLHPVENIPEIILYWKHSTIFDVGENLTVPDEFTVEERQTGMWWRHLVAGGGAGAVSRTCTAPLDRLKVLMQVHASRSNNMCIVGGFTQMIREGGAKSLWRGNGINVLKIAPESAIKFMAYEQMKRLVGSDQETLRIHERLVAGSLAGAIAQSSIYPMEVLKTRMALRKTGQYSGMLDCARRILAKEGVAAFYKGYIPNMLGIIPYAGIDLAVYETLKNTWLQRYAVNSADPGVFVLLACGTISSTCGQLASYPLALVRTRMQAQASIEGAPEVTMSSLFKQILRTEGAFGLYRGLAPNFMKVIPAVSISYVVYENLKITLGVQSR
As to B2, the binding entry is recorded as “binds”.

B3: Gtf2e2 (General transcription factor 2e2) (protein, UniProt Q9D902 1-292)
chain: MDPSLLRDRELFKKRALSTPVVEKRAVPSESPSSSSSKKKKAKVEHGGSSGSKQNSDHNNGSFNLKALSGSSGYKFGVLAKIVNYMKTRHQRGDTHPLTLEEILDETQHLDIGLKQKQWLMTEALVNNPKIEVVDGKYAFKPKYNLKDKKALLRLLDNHDQRGLGGILLEDIEEGLPNSQKAVKALGDQILFVSRPDKKKILFFNDKSCQFSVDEEFQKLWRSVTVDSMDEEKIEEYLKRQGISSMQESGPKKVASIQRRKKPASQKKRRFKTHNEHLAGVLKDYSDITPGK
Regarding B3, the binding entry is “binds”.

B4: Chdh (protein, UniProt Q8BJ64 35-596)
chain: VASVGKDEYTFVVVGAGSAGCVLASRLTEDPNHRVLLLEAGPKDLLMGSKRLQWKIHMPAALVSNLCDDKYNWYYHTEPQPGMDSRVLYWPRGRVWGGSSSLNAMVYIRGHAEDYNRWHREGAEGWDYAHCLPYFRKAQRHELGANMYRGGDGPLHVSRGKTNHPLHQAFLQAARQAGYPFTEDMNGFQQEGFGWMDMTVHQGKRWSTACAYLHPVLSRPNLRAEVQTLVSRVLFEGTRAVGVEYIKDGQRHKAYVSREVILSGGAINSPQLLMLSGVGNADDLRKLDIPVVCHLPGVGQNLQDHLEVYVQQACTQPITLHSAQKPLRKVCIGLEWLWSYTGDGATAHLETGGFIRSRPGVPHPDIQFHFLPSQVIDHGRKPTQQEAYQVHVGTMRATSVGWLKLRSANPRDHPVIHPNYLSTETDVEDFRQCVRLSREIFAQEALAPFRGKELQPGSHVQSDKEIDAFVRAKADSAYHPSCTCKMGRSSDPTAVVDAQTKVIGVENLRVVDASIMPSVVSGNLNAPTVMIAEKAADIIKGHPALEDKNVPVYKPQTLDTQR
In the case of B4, the binding entry is reported as “binds”.

B5: Uqcrc2 (protein, UniProt Q9DB77 15-453)
chain: SLKVAPKVKTSAAPGGVPLQPQDLEFTKLPNGLVIASLENYAPLSRIGLFVKAGSRYEDSNNLGTSHLLRLASSLTTKGASSFKITRGIEAVGGKLSVTATRENMAYTVEGIRSDIEILMEFLLNVTTAPEFRRWEVAALRSQLKIDKAVAFQNSQTRIIENLHDVAYKNALANPLYCPDYRMGKITSEELHYFVQNHFTSARMALVGLGVSHSVLKQVAEQFLNMRGGLGLAGAKAKYRGGEIREQNGDNLVHAAIVAESAAIGNAEANAFSVLQHLLGAGPHIKRGNNTTSLLSQSVAKGSHQPFDVSAFNASYSDSGLFGIYTISQAAAAGEVINAAYNQVKAVAQGNLSSADVQAAKNKLKAGYLMSVETSEGFLSEIGSQALAAGSYMPPSTVLQQIDSVADADVVKAAKKFVSGKKSMAASGNLGHTPFLDEL
As for B5, the binding result was “binds”.

B6: Kansl1 (Kat8 regulatory NSL complex subunit 1) (protein, UniProt Q80TG1 1-1036)
chain: MAAMAPALTDAAAEAHHIRFKLAPPSSTLSPGSAENNGNANILISANGTKRKAIAAEDPSLDFRNNPTKEDLGKLQPLVASYLCSDVTSVPAKESLKLQGVFSKQTVLKSHPLLSQSYELRAELLGRQPVLEFSLENLRTMNTSGQTALPQAPVNGLAKKLTKSSTHSDHDNSSSLNGGKRSLTSSSLQGGEVGGPDSGNLKGGMTNCTLPHRSLDIQHTTLYSNNSTANKSSVNSMDQPALQGSSRLSPSTDSSSNLTNVKLEVKKSPLSSILFSALDSDTRITALLRRQADIEIRARRLQKRLQVVQAKQVERHLQHQLGGFLETTLSKLPNLESLRSRSQLMLTRKAEAALRKAASESATSEGLSNFLKSDSISEELERFTASGIANLRCSEQAFDSDVTDSSSGGESDIEEEELTRADPEQCHVPLKRRSEWRWAADRAAIVSRWNWLQAHVSDLEYRIRQQTDIYKQIRANKGLIVLGEAPFPDHTTDLLSLSSEVKTDHGRDKLIESVSQPSENHGILVSNITESLSTKSCGAPRPVNGVVNSLQPVLADQVPGDSSDAEEQLHKKQRLNLVSSSDGTCVAARTRPVLTCKKRRLVRPSSIVPLSKKVHRNVRSGCDVNPSCALCGSGSVNTMPPEIHYEAPLLERLSQLDSCVHPVLAFPDDVPTSLHFQSMLKSQWQNKPFDKIKPTKKFSLKHRATMPCSLSDPVRKDRHKLVNSFLTTAMLKHHTDMSSPSYLTATHHPPHSPLVRQLSTSSDTSTPTSSGSQVAASTSQPVRRRRGESSFDINNIVIPMSVAATTRVEKLQYKEILTPSWREVDVQSLKGSPDEENEEIEDLSDAAFAALHAKCEEMERARWLWTTSVPPQRRGSRSYRSSDGRTTPQLGSANPSTPQPASPDVSSSHSLSEFSHGQSPRSPISPELHSAPLTPVARDSLRHLASEDTRCSTPELGLDEQSVQPWERRTFPLAYSPQAECEEQLDAQDTAARCTRRTSGSKTGREAEVAPTSPPVVPLKSRHLAATVTAQRPAHR
Turning to B6, the binding entry was “binds”.

B7: Rb1 (Retinoblastoma-associated protein 1) (protein, UniProt P13405 1-921)
chain: MPPKAPRRAAAAEPPPPPPPPPREDDPAQDSGPEELPLARLEFEEIEEPEFIALCQKLKVPDHVRERAWLTWEKVSSVDGILEGYIQKKKELWGICIFIAAVDLDEMPFTFTELQKSIETSVYKFFDLLKEIDTSTKVDNAMSRLLKKYNVLCALYSKLERTCELIYLTQPSSALSTEINSMLVLKISWITFLLAKGEVLQMEDDLVISFQLMLCVVDYFIKFSPPALLREPYKTAAIPINGSPRTPRRGQNRSARIAKQLENDTRIIEVLCKEHECNIDEVKNVYFKNFIPFINSLGIVSSNGLPEVESLSKRYEEVYLKNKDLDARLFLDHDKTLQTDPIDSFETERTPRKNNPDEEANVVTPHTPVRTVMNTIQQLMVILNSASDQPSENLISYFNNCTVNPKENILKRVKDVGHIFKEKFANAVGQGCVDIGVQRYKLGVRLYYRVMESMLKSEEERLSIQNFSKLLNDNIFHMSLLACALEVVMATYSRSTLQHLDSGTDLSFPWILNVLNLKAFDFYKVIESFIKVEANLTREMIKHLERCEHRIMESLAWLSDSPLFDLIKQSKDGEGPDNLEPACPLSLPLQGNHTAADMYLSPLRSPKKRTSTTRVNSAANTETQAASAFHTQKPLKSTSLALFYKKVYRLAYLRLNTLCARLLSDHPELEHIIWTLFQHTLQNEYELMRDRHLDQIMMCSMYGICKVKNIDLKFKIIVTAYKDLPHAAQETFKRVLIREEEFDSIIVFYNSVFMQRLKTNILQYASTRPPTLSPIPHIPRSPYKFSSSPLRIPGGNIYISPLKSPYKISEGLPTPTKMTPRSRILVSIGESFGTSEKFQKINQMVCNSDRVLKRSAEGGNPPKPLKKLRFDIEGADEADGSKHLPAESKFQQKLAEMTSTRTRMQKQRMNESKDVSNKEEK
For the molecule B7, the binding result is given as “binds”.

B8: Setdb2 (SET domain bifurcated histone lysine methyltransferase 2) (protein, UniProt Q8C267 1-713)
chain: MEEKNGDAKTFWMELQDDGKVDLMFEKTQNVLHSLKQKIKDGSATNGDYVQAMNLVNEATLSNTQTLEKGMFITYSNPEVNTHRSNHTPVTQSEQENKSSAVPSASCDNSCPKGCTIPSPGKKVFLPVKNKADNLVKKEAPLHISFHRHICSRTCLMETPLSLKGENPLQLPIRCHFQRRHAKTNSHSSALHVNYKTPCGRNLRNMEEVFHYLLETECNFLFTDNFSFNTYVQLTRNHPKQNEVVSDVDISNGVESVSIPFCNEIDNSKLPRFKYRNTVWPRIYHLNFSNMFSDSCDCSEGCIDIKKCACLQLTAKNAKACPLSSDGECAGYKYKRLQRLIPTGIYECNLLCKCNKQMCQNRVIQHGVRVRLQVFKSEKKGWGVRCLDDIDKGTFVCIYSGRLLRRATPEKTNIGENGREQQHIVKNSFSKKRKLEVVCSDCDAHCDSPKAEDCPPKLSGDLKEPAVEMNHRNISRTQHHSVIRRTKSKTTVFHYSEKNMGFVCSDSAAPEDKNGFKPAQEHVNSEARRAHEDLSSNPAGDSEDTQLTESDVIDITASREDSAPAYRCKHATIVDRKDTKQVLEVPGKKSQEEEPAASQSQQALCDEELPSERTKIPSASLMQLSKESLFLLDASKEGNVGRFLNHSCCPNLWVQNVFVETHDRNFPLVAFFTNRYVKARTELTWDYGYEAGATPAKEILCQCGFNKCRKKLI
In the case of B8, the binding entry is reported as “binds”.

B9: Ndufa8 (protein, UniProt Q9DCJ5 1-172)
chain: MPGIVELPTLEELKVEEVKVSSAVLKAAAHHYGAQCDKTNKEFMLCRWEEKDPRRCLKEGKLVNGCALNFFRQIKSHCAEPFTEYWTCLDYSNMQLFRHCRQQQAKFDQCVLDKLGWVRPDLGQLSKVTKVKTDRPLPENPYHSRARPEPNPVIEGDLKPAKHGTRFFFWTV
As to B9, the binding result was “binds”.

B10: Idh3g (protein, UniProt P70404 40-393)
chain: SSQQTIPPSAKYGGRHTVTMIPGDGIGPELMLHVKSVFRHACVPVDFEEVHVSSNADEEDIRNAIMAIRRNRVALKGNIETNHNLPPSHKSRNNILRTSLDLYANVIHCKSLPGVVTRHKDIDILIVRENTEGEYSSLEHESVAGVVESLKIITKAKSLRIAEYAFKLAQESGRKKVTAVHKANIMKLGDGLFLQCCREVAAHYPQITFDSMIVDNTTMQLVSRPQQFDVMVMPNLYGNIVNNVCAGLVGGPGLVAGANYGHVYAVFETATRNTGKSIANKNIANPTATLLASCMMLDHLKLHSYATSIRKAVLASMDNENMHTPDIGGQGTTSQAIQDIIRHIRIINGRAVEA
Consider B10, for which the binding entry was “binds”.
